No constants are given. Whether binding was seen depends on the method and setting. Some results given as binding are weak or reduced against the parent protein; the word gives no strength. One block for each binder: values may come before it.
Key:
[1] = target: human recombinant EphA2-(x6 His) purchased from R & D (human) (UniProt P29317); test: sandwich ELISA, capture 230-1, detection biotin-labeled 57-1, specificity test
[2] = target: human recombinant EphA2-(x6 His) purchased from R & D (human) (UniProt P29317); test: sandwich ELISA, monoclonal as capture, biotin-labeled anti-EPHA2 polyclonal antibody (R & D BAF3035) as detection
[3] = target: human recombinant EphA2-(x6 His) purchased from R & D (human) (UniProt P29317); test: sandwich ELISA with 57-1 and 230-1 as capture and biotin-labeled detection antibodies
[4] = target: human recombinant EphA2-(x6 His) purchased from R & D (human) (UniProt P29317); test: sandwich ELISA, capture 57-1, detection biotin-labeled 230-1
[5] = target: human recombinant EphA2-(x6 His) purchased from R & D (human) (UniProt P29317); test: optimized sandwich ELISA, 57-1 and 230-1 in both orientations

Chains of the proteins cited; added tags and fusions are not shown. Lines headed by an entry give the natural chain unless they say otherwise; changes in a name come on top.
UniProt P29317: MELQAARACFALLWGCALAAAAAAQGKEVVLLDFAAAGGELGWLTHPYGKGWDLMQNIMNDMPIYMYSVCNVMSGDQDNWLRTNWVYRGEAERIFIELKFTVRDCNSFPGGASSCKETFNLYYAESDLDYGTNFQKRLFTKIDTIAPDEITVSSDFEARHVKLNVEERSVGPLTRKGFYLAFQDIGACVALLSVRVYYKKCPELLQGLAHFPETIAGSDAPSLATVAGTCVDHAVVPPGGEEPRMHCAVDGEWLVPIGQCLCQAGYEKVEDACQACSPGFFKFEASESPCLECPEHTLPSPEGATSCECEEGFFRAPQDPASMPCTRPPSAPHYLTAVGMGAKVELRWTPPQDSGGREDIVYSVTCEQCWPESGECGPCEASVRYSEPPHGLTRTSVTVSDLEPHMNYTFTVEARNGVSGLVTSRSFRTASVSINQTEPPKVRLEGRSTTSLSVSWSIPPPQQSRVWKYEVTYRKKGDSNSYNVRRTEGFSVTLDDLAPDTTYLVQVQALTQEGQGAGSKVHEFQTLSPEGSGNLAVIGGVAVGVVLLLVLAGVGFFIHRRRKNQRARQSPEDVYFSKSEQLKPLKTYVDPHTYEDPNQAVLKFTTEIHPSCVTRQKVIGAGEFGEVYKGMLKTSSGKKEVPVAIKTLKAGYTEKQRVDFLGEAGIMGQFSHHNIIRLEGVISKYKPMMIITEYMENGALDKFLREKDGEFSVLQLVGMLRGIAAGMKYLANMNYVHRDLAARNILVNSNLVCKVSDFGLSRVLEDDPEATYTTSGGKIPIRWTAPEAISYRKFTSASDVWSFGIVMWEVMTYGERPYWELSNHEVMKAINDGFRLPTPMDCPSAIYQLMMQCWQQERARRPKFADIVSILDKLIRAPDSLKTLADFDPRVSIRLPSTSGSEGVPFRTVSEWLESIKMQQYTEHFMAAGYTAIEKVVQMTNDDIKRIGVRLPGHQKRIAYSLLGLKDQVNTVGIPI

binding [1]: binds
binding [2]: binds
binding [3]: binds
binding [4]: binds
binding [5]: binds
B1: mouse anti-EPHA2 monoclonal antibody 230-1 (antibody, V domains shown)
VH: EVQLVESGGGLVKPGGSLKLSCEASGFTFSDYYMYWVRQTPEKRLEWVATISDDGSFTHYLDSVKGRFTISRDNAQNNLYLQMSSLKSDDTAMYYCARDGYRYDRPFAYWGQGTLVTVSA
VL: DIVMTQSHKFMSTSVGDRVRITCKASQDVNTAVAWYQQKPGQSPKLLIYWASTRHTGVPDRFTGSGSGTDYSLTISSVQAEDLALYYCQQHYSTPYTFGGGTKLEIKR
notes: The variable regions were found by 5'-RACE; Used unlabeled as capture antibody and biotin-labeled as detection antibody; also called biotin-labeled antibody 230-1

binding [1]: binds
binding [2]: binds
binding [3]: binds
binding [4]: binds
binding [5]: binds
B2: mouse anti-EPHA2 monoclonal antibody 57-1 (antibody, V domains shown)
VH: QIQLVQSGPELKKPGETVKISCKGSGYTFTNYGMNWVKQAPGKGLKWMAWINTDTGEPIFVEEFKGRFAFSLETSASTAYLQINNLTNEDTATYFCARSMGGFANWGQGTLVTVSA
VL: DIVMTQSPATLSVTPGDRVSLSCRASQNISDYLHWYQQKSHESPRLLIKYASQSISGIPSRFSGSGSGSDFTLTINSVEPEDVAMYYCQNGHTFPTFGAGTKLELKR
notes: The variable regions were found by 5'-RACE; Used unlabeled as capture antibody and biotin-labeled as detection antibody; also called biotin-labeled antibody 57-1
